Values from PubChem BioAssay AID504808 (Drosophila RNAi Screening Center, 2011).
The screen tested about 21,000 reagents; below is a random part of those that have a named target and a result. Over the whole deposit, 18 (0.084%) were called active. 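Raw counts without plate normalisation, one of two replicates; the ratio scores behind the calls were not deposited.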 The numbers tell different reagents against one gene apart. Names joined by + are all predicted targets of the reagent. Reagent sequences are not shown. The record does not give: the amount of reagent, the time to read-out.

Assay: 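Chromatin factors that keep E2F targets switched off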 (primary screen)
System: Drosophila S2 cells
Reagent: long dsRNA against Drosophila genes
Measurement: 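Dual luciferase plate measurements; E2F-specific signal taken as firefly over Renilla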
Direction: E2F firefly: higher = more E2F reporter activity; Renilla normaliser: higher = more normaliser reporter signal
Active means: 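Called active if the normalised E2F reporter went up by over 50%; the cutoff is arbitrary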

predicted target | dsRNA no. | E2F firefly, rep 1 | Renilla normaliser, rep 1 | activity call
dpr13 (defective proboscis extension response 13) | 1 | 1.55e5 | 5440 | inactive
dpr13 (defective proboscis extension response 13) | 2 | 1.30e5 | 4011 | inactive
CG9297 | 1 | 81106 | 3745 | inactive
Nuak (Nuak family kinase) | 1 | 1.54e5 | 6305 | inactive
Nuak (Nuak family kinase) | 2 | 68022 | 3331 | inactive
Nuak (Nuak family kinase) | 3 | 1.45e5 | 6342 | inactive
FLASH (FLICE-associated huge protein) | 1 | 50792 | 3351 | inactive
Pax (Paxillin) | 1 | 1.41e5 | 7000 | inactive
Pax (Paxillin) | 2 | 90730 | 3491 | inactive
Pax (Paxillin) | 3 | 89055 | 3765 | inactive
CG12935 + Nop10 | 1 | 1.33e5 | 5183 | inactive
CG4022 | 1 | 1.20e5 | 7075 | inactive
CG9044 | 1 | 77505 | 3468 | inactive
mad2 | 1 | 70307 | 3997 | inactive
Fer1HCH (Ferritin 1 heavy chain homologue) | 1 | 1629 | 992 | inactive
Thor | 1 | 91128 | 4246 | inactive
RabGGTb (Rab geranylgeranyltransferase subunit beta) | 1 | 96835 | 3907 | inactive
Tbcd (Tubulin-binding cofactor D) | 1 | 83969 | 3794 | inactive
CG15800 | 1 | 1.04e5 | 4642 | inactive
CG11741 | 1 | 1.47e5 | 7578 | inactive
phr (photorepair) | 1 | 1.48e5 | 4817 | inactive
kek3 (kekkon 3) | 1 | 1.10e5 | 4771 | inactive
CG3847 | 1 | 78755 | 2484 | inactive
CG3847 | 2 | 8480 | 616 | inactive
CG34396 | 1 | 1.01e5 | 4609 | inactive
CG34396 | 2 | 1.01e5 | 3742 | inactive
Acat1 (Acetyl-CoA acetyltransferase 1) | 1 | 8562 | 792 | inactive
CG17271 | 1 | 1.37e5 | 7706 | inactive
ntc (nutcracker) | 1 | 75813 | 3299 | inactive
CG32568 | 1 | 1.37e5 | 6191 | inactive
CG2291 | 1 | 1.65e5 | 5066 | inactive
CG31674 | 1 | 1.11e5 | 4204 | inactive
Amph (Amphiphysin) | 1 | 2763 | 206 | inactive
CG7179 | 1 | 1.56e5 | 5403 | inactive
NP15.6 | 1 | 1.36e5 | 6030 | inactive
Usp8 (Ubiquitin specific protease 8) | 1 | 62441 | 2863 | inactive
CG8132 | 1 | 1.36e5 | 6114 | inactive
ato (atonal) | 1 | 1.11e5 | 4595 | inactive
TwdlN (TweedleN) | 1 | 1.09e5 | 6789 | inactive
CG18766 | 1 | 1492 | 852 | inactive
dimm (dimmed) | 1 | 1.06e5 | 4641 | inactive
Cyp28c1 (Cytochrome P450 28c1) | 1 | 49510 | 4577 | inactive
Tti1 (Telo2 interacting protein 1) | 1 | 1.50e5 | 7230 | inactive
CG8312 | 1 | 1.24e5 | 5975 | inactive
Vha16-4 + CG15614 | 1 | 1.55e5 | 5213 | inactive
wapl (wings apart-like) | 1 | 1722 | 808 | inactive
CG15742 | 1 | 8365 | 724 | inactive
Smyd4-1 (SET and MYND domain containing, class 4, member 1) | 1 | 3458 | 92 | inactive
CG6511 | 1 | 93438 | 4485 | inactive
ric8a | 1 | 7434 | 740 | inactive

Next part (2 carried over from the part before).
predicted target | dsRNA no. | E2F firefly, rep 1 | Renilla normaliser, rep 1 | activity call
CG6511 | 1 | 93438 | 4485 | inactive
ric8a | 1 | 7434 | 740 | inactive
Gr28b (Gustatory receptor 28b) | 1 | 1.54e5 | 5967 | inactive
Gr28b (Gustatory receptor 28b) | 2 | 1.54e5 | 5552 | inactive
CG3565 | 1 | 80095 | 3927 | inactive
Pcyt2 (Phosphocholine cytidylyltransferase 2) | 1 | 77572 | 3608 | inactive
CanA1 (Calcineurin A1) | 1 | 1.31e5 | 7002 | inactive
Syt4 (Synaptotagmin 4) | 1 | 1.28e5 | 6663 | inactive
org-1 (optomotor-blind-related-gene-1) | 1 | 61392 | 3718 | inactive
Prx6a (Peroxiredoxin 6a) | 1 | 87331 | 3308 | inactive
nAChRbeta1 (nicotinic Acetylcholine Receptor beta1) | 1 | 1.36e5 | 4264 | inactive
nAChRbeta1 (nicotinic Acetylcholine Receptor beta1) | 2 | 77707 | 3949 | inactive
CG4502 | 1 | 69076 | 204 | inactive
h-cup (heineken-cup) | 1 | 77310 | 3692 | inactive
CG14545 | 1 | 1.17e5 | 6050 | inactive
Itgbn (Integrin betanu subunit) | 1 | 1.08e5 | 3834 | inactive
CG5861 | 1 | 81096 | 3107 | inactive
CG30375 | 1 | 1.63e5 | 5775 | inactive
ChT (Choline transporter) | 1 | 63093 | 3427 | inactive
cocoon | 1 | 1.54e5 | 7369 | inactive
CG4554 | 1 | 76843 | 3886 | inactive
CG4622 | 1 | 74528 | 3783 | inactive
Alg2 (ALG2, alpha-1,3/1,6-mannosyltransferase) | 1 | 86315 | 3519 | inactive
CG8157 | 1 | 91935 | 3683 | inactive
CG10804 | 1 | 1894 | 864 | inactive
CG34135 + Nasp | 1 | 1.16e5 | 6980 | inactive
Ack-like (Activated Cdc42 kinase-like) | 1 | 2981 | 48 | inactive
PsGEF (retired record) | 1 | 98633 | 5329 | inactive
PsGEF (retired record) | 2 | 1.13e5 | 5124 | inactive
r-l (rudimentary-like) | 1 | 84008 | 3494 | inactive
Os-C | 1 | 1.32e5 | 6786 | inactive
mus304 (mutagen-sensitive 304) | 1 | 1.76e5 | 8962 | inactive
CG15547 | 1 | 1.23e5 | 6802 | inactive
CG42570 | 1 | 1.36e5 | 4114 | inactive
Nplp2 (Neuropeptide-like precursor 2) | 1 | 1.30e5 | 7147 | inactive
CG8155 | 1 | 82958 | 3603 | inactive
